Results from article PMC7954794, “Protein context shapes the specificity of SH3 domain-mediated interactions in vivo” (Nature Communications, 2021).
The amount applied is not stated for every result.

Columns and labels:
Format in all cases: cell-based, Saccharomyces cerevisiae
Design in all cases: key: 0: SH3-independent; 1: SH3-dependent PPIs; 2: SH3-inhibited PPIs
BBC1 = test: DHFR-PCA on solid medium, bait BBC1 (Fig. 1B); conditions: bait BBC1, label = prey
Source text: (§1) Supplement 41467_2021_21873_MOESM8_ESM.xlsx, sheet "Fig1B" | column: medsize; medrep; Ratio; Score

BOI1 = test: DHFR-PCA on solid medium, bait BOI1 (Fig. 1B); conditions: bait BOI1, label = prey
Source text: as §1

BOI2 = test: DHFR-PCA on solid medium, bait BOI2 (Fig. 1B); conditions: bait BOI2, label = prey
Source text: as §1

BUD14 = test: DHFR-PCA on solid medium, bait BUD14 (Fig. 1B); conditions: bait BUD14, label = prey
Source text: as §1

Measured: Score

B1: YLR332W (protein, UniProt P36027 26-376, looked up)
Cell wall integrity sensor …: QFFVQSSSSNSSAVSTARSSVSRVSSSSSILSSSMVSSSSADSSSLTSSTSSRSLVSHTSSSTSIASISFTSFSFSSDSSTSSSSSASSDSSSSSSFSISSTSATSESSTSSTQTSTSSSSSLSSTPSSSSSPSTITSAPSTSSTPSTTAYNQGSTITSIINGKTILSNHYTTVTYTPSATADSSNKSKSSGLSKKNRNIVIGCVVGIGVPLILVILALIYMFCIQSSRTDFIDSDGKVVTAYRANKFTKWWYMLLGKKVSDEYHSDSPLGGSASSAGGLDLDEADDVMEQSSLFDVRIRDSDSVLPNANTADHNNTNSGGEPINSSVASNDIIEEKFYDEQGNELSPRNY
0: BBC1 | BOI1 | BOI2 | BUD14

B2: YIL033C (protein, UniProt P07278 2-416, looked up)
cAMP-dependent protein kinase …: VSSLPKESQAELQLFQNEINAANPSDFLQFSANYFNKRLEQQRAFLKAREPEFKAKNIVLFPEPEESFSRPQSAQSQSRSRSSVMFKSPFVNEDPHSNVFKSGFNLDPHEQDTHQQAQEEQQHTREKTSTPPLPMHFNAQRRTSVSGETLQPNNFDDWTPDHYKEKSEQQLQRLEKSIRNNFLFNKLDSDSKRLVINCLEEKSVPKGATIIKQGDQGDYFYVVEKGTVDFYVNDNKVNSSGPGSSFGELALMYNSPRAATVVATSDCLLWALDRLTFRKILLGSSFKKRLMYDDLLKSMPVLKSLTTYDRAKLADALDTKIYQPGETIIREGDQGENFYLIEYGAVDVSKKGQGVINKLKDHDYFGEVALLNDLPRQATVTATKRTKVATLGKSGFQRLLGPAVDVLKLNDPTRH
0: BBC1 | BOI1 | BOI2 | BUD14
